Measurements from publication doi:10.1101/2024.01.20.576407.
Results are given in words; binding and its absence hold for the method and conditions named. Some binding calls cover weakened binding; strength is not graded here. Tags and fused reporters may be left off the sequences shown.

Biological target: T1, 3Flag-Aurora B^AUK1 (Trypanosoma brucei) (UniProt Q384J7)
T1 sequence: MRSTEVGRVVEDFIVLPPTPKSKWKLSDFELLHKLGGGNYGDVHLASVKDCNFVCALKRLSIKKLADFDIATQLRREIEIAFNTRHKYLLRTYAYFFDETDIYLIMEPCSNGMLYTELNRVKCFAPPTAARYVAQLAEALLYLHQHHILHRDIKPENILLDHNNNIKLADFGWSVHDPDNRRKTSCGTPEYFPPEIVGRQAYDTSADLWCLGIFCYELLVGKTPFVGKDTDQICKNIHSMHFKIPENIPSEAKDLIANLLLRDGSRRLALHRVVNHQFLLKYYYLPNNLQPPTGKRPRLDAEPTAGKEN
Assay: co-purification of a co-expressed complex; 3Flag-Aurora B^AUK1 (wild type or K58R) and INCENP^CPC1 co-expressed in Sf9 cells from one bacmid and purified as a complex (protocol of Llauró et al., 2018)

B1: INCENP^CPC1 (protein, UniProt Q586F4 1-263)
chain: MSNPWNAKLVEELLFRQYEKGEDVSMLLPPPPALSVDQYLKEYEQSTKVLFAYVRNGPANALTPQNINNPRMYGGTPTKGSSSMQRTGNQGGATCATTSSSSACGVDSKAQMQRHPRGLDGSQSAAPSLPLTAGDAAAGQGSMAPPEHIRKRIEWPATVPTNSALKSNSRSRVANLTTKRVAAQERVDPDLIFMQNPEELPLHTIFAKYPKAVESIAALRGGSGDWREDTFTEEEEILYKRELRYSHMGPSQCGFFRSNLIQR
  binding: binds
